Among all 330,000 compounds or so, about 7,700 (2.3%) were called active. Inconclusive means that the source gave no clear call. Such entries were picked first, then a sample of the others. Calls come from the whole dose curve; as a rule, active = well fitted inhibition curve with a large enough effect; inconclusive = small, poorly fitted or top-dose-only effect, or effect the other way; inactive = flat fitted curve, though single readings scatter. Where the call is inconclusive, the potency comes from a doubtful curve fit.
Experiment: qHTS screen for small molecules that inhibit ELG1-dependent DNA repair in human embryonic kidney (HEK293T) cells expressing luciferase-tagged ELG1; note: nearly all actives have a fitted effect of over 55% in size
Settings: HEK293T ELG1-luciferase reporter, luminescence, 16 h, DNA damage induced by 5-fluorouridine; series mostly up to 46.1 µM
Procedure, shortened: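 5-Fluorouridine DNA damage + compound/DMSO, 2,000 cells/well, 16 h, 37 °C/5% CO2. ONE-Glo, 30 min RT, luminescence. Readout = decrease in reporter signal.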
Potency is the fitted concentration of half-maximal effect.

Row | SMILES | Potency
1 | COc1cc(C(=O)N2c3ccccc3CCC2C)cc(OC)c1OC (configuration not stated) | inconclusive: 35.5 µM [inhibitor, partial curve, poor fit]
2 | O=C(O)c1ccccc1CSC1=NCCS1 | inactive
3 | CN1CCC(N(C)C(=O)CCc2nc3ccccc3n2-c2ccccc2)CC1 | inactive
4 | C/C(=N\NC(=O)c1ccccn1)c1ccc(C(=O)O)s1 | inconclusive: 20.6 µM [activator, partial curve]
5 | CCOC(=O)c1cc(-c2ccccc2C)nn1CC1CC(c2cccnc2)=NO1 (configuration not stated) | inconclusive: 29.1 µM [inhibitor, single point]
6 | O=C1C(Cl)=C(NCC2CCCO2)C(=O)N1c1cccc(Cl)c1Cl (configuration not stated) | inconclusive: 2.31 µM [activator, partial curve, poor fit]
7 | COc1ccc(C(=O)c2sc(Nc3ccccc3)nc2N)cc1 | inconclusive: 20.6 µM [inhibitor, single point]
8 | COc1ccc(CN2CCOCC2)cc1OC | inactive
9 | CCNS(=O)(=O)c1c(C)cc(N2CCCC2=O)cc1C | inactive
10 | CC(=O)Nc1ccc(NC(=O)C2CCCN2C(=O)Nc2ccc(F)c([N+](=O)[O-])c2)cc1 (configuration not stated) | inactive
11 | O=C(CN1C(=O)C2C3CCC(C3)C2C1=O)OCC(=O)c1ccc(Br)cc1 (configuration not stated) | inactive
12 | O=C(Oc1coc(CSc2nnc(NC(=O)c3cccs3)s2)cc1=O)c1ccccc1 | inactive
13 | CCOC(=O)C1(Cc2ccccc2)CCN(Cc2ccc(C)s2)CC1 | inconclusive: 16.4 µM [inhibitor, partial curve]
14 | CCOC(=O)C1(Cc2ccccc2Cl)CCN(C(=O)c2cc(C)on2)CC1 | inconclusive: 18.3 µM [activator, partial curve]
15 | O=C(NCCCN1CCCC1=O)c1ccc(S(=O)(=O)Nc2cccc(C(F)(F)F)c2)cc1 | inactive
16 | COc1ccc(NC(=O)/C=C/c2ccc(Br)o2)cn1 | inconclusive: 4.11 µM [activator, partial curve, poor fit]
17 | CCCC(=O)N1CCN(c2ccc(NC(=O)c3cc4ccccc4o3)cc2Cl)CC1 | active: 2.31 µM
18 | c1ccc2c(c1)CCN(c1nc3cc4c(cc3s1)OCCO4)C2 | inconclusive: 0.13 µM [activator, full curve]
19 | CC(=O)Nc1ccc(NC(=O)C(C)OC(=O)c2cc(S(=O)(=O)N3CCOCC3)ccc2Cl)cc1 (configuration not stated) | inconclusive: 20.6 µM [inhibitor, single point]
20 | CC1CCCCN1CCCNC(=O)CN1C(=O)c2cccnc2Oc2ccccc21 (configuration not stated) | inactive
21 | CCOc1cc(/C=N/NC(=O)c2ccc(=O)n(C)c2)ccc1O | inconclusive: 13 µM [activator, partial curve, poor fit]
22 | CCCC1NC(C(=O)O)Cc2c1[nH]c1ccccc21 (configuration not stated) | inactive
23 | O=C(CCN1C(=O)c2cccc3cccc(c23)C1=O)NC1CCS(=O)(=O)C1 (configuration not stated) | inconclusive: 20.6 µM [activator, partial curve]
24 | Cc1ccccc1C(=O)O/N=C/c1c(N2CCOCC2)n(C)c2ccccc12 | inconclusive: 5.8 µM [inhibitor, single point]

Two of these compounds, set out differently:

| Row | SMILES | Potency |
| --- | --- | --- |
| 15 | O=C(NCCCN1CCCC1=O)c1ccc(S(=O)(=O)Nc2cccc(C(F)(F)F)c2)cc1 | inactive |
| 16 | COc1ccc(NC(=O)/C=C/c2ccc(Br)o2)cn1 | inconclusive: 4.11 µM [activator, partial curve, poor fit] |

The listing continues.

Row | SMILES | Potency
25 | O=C(NCc1ccc(F)cc1)c1cc2c(s1)CS(=O)(=O)C2 | inactive
26 | CCn1c(=S)sc2c(=O)n(CC(=O)Nc3ccccc3C(F)(F)F)c(C)nc21 | inconclusive: 23.1 µM [activator, partial curve]
27 | CN(C)c1ccc(/C=N\NC(=O)CC#N)cc1 | inactive
28 | CC(=O)Nc1nnc(C2=COCCO2)o1 | inactive
29 | CCc1n[nH]c(=S)n1/N=C/c1cc(OC)cc([N+](=O)[O-])c1O | inconclusive: 29.1 µM [inhibitor, single point]
30 | CC(=O)c1ccc(N2CCN(C(=O)Nc3ccc(F)cc3)CC2)cc1 | inconclusive: 29.1 µM [inhibitor, single point]
31 | Cc1cc(CNC(=O)COc2ccccc2)c2ccccc2n1 | inconclusive: 14.6 µM [inhibitor, partial curve]
32 | CN(C)S(=O)(=O)c1ccc(C(=O)OCC2CCCO2)cc1 (configuration not stated) | inactive
33 | O=C(Nc1ccc2[nH]c(=O)[nH]c2c1)c1ccc(Br)o1 | inconclusive: 20.6 µM [activator, single point]
34 | CCCOc1ccc(CSc2nc3ccccc3[nH]2)cc1 | inconclusive: 20.6 µM [activator, partial curve]
35 | COc1ccc(NC(=O)c2cc(-c3ccc(C)c(C)c3O)n[nH]2)cc1Cl | inconclusive: 29.1 µM [inhibitor, single point]
36 | CC1CC(C)CN(C(=O)C2CCC(CNS(=O)(=O)c3ccccc3)CC2)C1 (configuration not stated) | inactive
37 | CC1CCN(C(=O)COC(=O)c2cc(Cl)c3c(c2)OCO3)CC1 | inconclusive: 20.6 µM [activator, partial curve]
38 | Cc1ccc(NC(=O)c2nc[nH]c2C(=O)N2CCc3ccccc3C2)cc1 | inactive
39 | COc1cc(NC(=O)CCC2CCCC2)cc(-n2cnnn2)c1 | inconclusive: 25.9 µM [inhibitor, single point]
40 | Cc1ccc(CNC(=O)CCS(=O)(=O)Cc2ccc(C)cc2)cc1 | inconclusive: 18.3 µM [activator, partial curve, poor fit]
41 | CC(NC(=O)c1cc2cc(F)ccc2[nH]1)c1ccccc1 (configuration not stated) | inconclusive: 25.9 µM [inhibitor, single point]
42 | c1ccc2sc(N3CCOCC3)nc2c1 | inconclusive: 13 µM [activator, partial curve]
43 | CC(C)c1ccc(NC(=O)COC(=O)c2nn(C)c(=O)c3ccccc23)cc1 | inactive
44 | Nc1c(C(=O)Nc2ccccc2F)sc2nc(-c3cccnc3)ccc12 | inconclusive: 20.6 µM [activator, single point]
45 | CCOc1ccccc1/C=C(/NC(=O)c1ccccc1)C(=O)N1CCCCC1 | inconclusive: 0.651 µM [inhibitor, partial curve, poor fit]
46 | C(=C\c1ccco1)/c1nc2ccccc2[nH]1 | inconclusive: 2.06 µM [activator, full curve]
47 | Cc1ccc(Cn2ccc(NC(=O)c3c(-c4ccccc4Cl)noc3C)n2)cc1 | inconclusive: 13 µM [inhibitor, partial curve]

From PubChem BioAssay AID504467 (National Center for Advancing Translational Sciences (NCATS), 2011)
